Results are given in words; binding and its absence hold for the method and conditions named. In cells and extracts the contact can be indirect. Some binding calls cover weakened binding; strength is not graded here. For some assays here: Tags and fused reporters may be left off the sequences shown.
How the values were obtained:
[1] = biological target: Myc-tagged wild-type (WT) SNAP25 (synaptosomal-associated protein 25) (UniProt P60880); test: co-IP; HEK293T cells transfected with Flag-TNFAIP1 (full length or truncations) and Myc-SNAP25; IP with anti-Flag or anti-Myc antibody and protein A/G magnetic beads, IB with anti-Flag or anti-Myc
[2] = biological target: endogenous SNAP25 (HT22 cells) (mouse (endogenous in HT22)) (UniProt P60879); test: co-IP; HT22 cell lysate, endogenous proteins; IP with anti-SNAP25 antibody, protein A/G magnetic beads

By UniProt entry, the sequences of proteins in these tests, tags left out.
UniProt P60880: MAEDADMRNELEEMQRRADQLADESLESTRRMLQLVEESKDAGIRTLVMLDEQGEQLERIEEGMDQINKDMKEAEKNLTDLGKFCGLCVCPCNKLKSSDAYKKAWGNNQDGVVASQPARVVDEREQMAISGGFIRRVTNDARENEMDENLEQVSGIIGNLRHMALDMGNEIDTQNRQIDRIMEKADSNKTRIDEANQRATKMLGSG
UniProt P60879: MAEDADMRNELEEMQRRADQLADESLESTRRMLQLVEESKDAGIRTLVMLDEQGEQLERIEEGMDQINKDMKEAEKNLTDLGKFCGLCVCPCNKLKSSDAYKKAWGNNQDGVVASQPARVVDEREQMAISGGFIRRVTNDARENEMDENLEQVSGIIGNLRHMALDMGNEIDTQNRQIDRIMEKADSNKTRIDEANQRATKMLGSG

Binder	binding [1]	binding [2]
Flag-tagged full-length (FL) TNFAIP1 (tumor necrosis factor α-induced protein 1) (protein, UniProt Q13829 1-316) MSGDTCLCPASGAKPKLSGFKGGGLGNKYVQLNVGGSLYYTTVRALTRHDTMLKAMFSGRMEVLTDKEGWILIDRCGKHFGTILNYLRDDTITLPQNRQEIKELMAEAKYYLIQGLVNMCQSALQDKKDSYQPVCNIPIITSLKEEERLIESSTKPVVKLLYNRSNNKYSYTSNSDDHLLKNIELFDKLSLRFNGRVLFIKDVIGDEICCWSFYGQGRKLAEVCCTSIVYATEKKQTKVEFPEARIYEETLNVLLYETPRVPDNSLLEATSRSRSQASPSEDEETFELRDRVRRIHVKRYSTYDDRQLGHQSTHRD	binds	–
endogenous TNFAIP1 (HT22 cells) (protein, UniProt O70479 1-316) MSGDTCLCPASGAKPKISGFKGGGLGNKYVQLNVGGSLYYTTVRALTRHDTMLKAMFSGRMEVLTDKEGWILIDRCGKHFGTILNYLRDDTITLPQSRQEIQELMAEAKYYLIQGLVSTCQTALQDKKDSYQPVCNIPIITSLREEDRLIESSTKPVVKLLYNRSNNKYSYTSNSDDHLLKNIELFDKLSLRFNGRVLFIKDVIGDEICCWSFYGQGRKLAEVCCTSIVYATEKKQTKVEFPEARIYEETLNVLLYETPRVPDNSLLEATSRSRSQASPSEDEDTFELRDRVRRIHVKRYSTYDDRQLGHQSTHRD	–	binds
